Laboratory results taken from patent publication US9321804B2, “Synthesis and use of anti-tumor drug LQC-Y” (Beijing University of Chinese Medicine, priority 2011, dated 2016).

Columns and labels:
[1] = test system: S180 sarcoma of mice; experiment: Tumor inhibiting effect of LQC-Y2 in tumor bearing S180 mice; details: for spleen index compared with the negative control group: LQC-Y2 small dosage group (75 mg/Kg), cyclophosphamide 0.02 g/(Kg.d); for Spleen index (mg/g) / Spleen index: S180 mice, 15 days
Protocol: The S180 mice that had been inoculated for 7 days were killed by breaking the neck thereof and ascites was taken from the mice respectively in an aseptic environment and the ascites was washed using RPMI1640 culture medium for 2 times and then made into a […] /ml cell suspension using aseptic physiological saline. Then the obtained S180 cell suspension was inoculated hypodermically at the right axillary of mice, 0.1 ml for each mouse and 50 mice total, to establish the solid tumor model.
(§1) 60 mice were divided into 2 categories, including 6 groups, according to the random number table method, i.e. normal control group of the first category, and S180 solid tumor groups of the second category which included positive (cyclophosphamide) control group, negative control group, small dosage group, middle dosage group and large dosage group, 10 mice for each group. The experiment was repeated for 3 times.
LQC-Y2 was made into an emulsion using corn oil. The dosage of the small dosage group was 75 mg/Kg, the dosage of the middle dosage group was 150 mg/Kg, and the dosage of the large dosage group was 300 mg/kg. Equal volume of corn oil was injected into the mice of the negative control group, cyclophosphamide injection 0.02 g/(Kg.d) was injected into the mice of the positive control group. These medicines were administrated 0.1 ml per mouse by intraperitoneal injection every the other day continuously for 15 days. During this period, the common behavior, hair and excrement and so on were observed daily. The mice that had been inoculated with S180 by hypodermic inoculation were killed by breaking the necks thereof after 24 h after the last administration and the tumor, liver and spleen were then taken.
(§2) The weight of the solid tumor group mice were measured after all the administration was over and then the mice were killed. The spleens and the livers thereof were weighed by an electronic balance. The spleen index was calculated as the spleen weight of a mouse (mg)/the body weight of a mouse(g) and the liver index was calculated as the liver weight of a mouse(100 g)/the body weight of a mouse(g).
(§3) The solid tumor negative control group mice were weighed on the next day after the administration was finished (the eyeballs of the mice were removed to bleed and the serum was collected for subsequent experimental use). Then the mice were killed by breaking the neck thereof. The tumor tissues were taken out and weighed by an electronic balance to calculate the tumor-inhibiting ratio.
(§4) All the data were statistically analyzed using SPSS11.0 software pack. The comparison of the enumeration data was carried out with X^2 test. P<0.05 had statistical significance.

[2] = test system: S180 sarcoma of mice; experiment: Tumor inhibiting effect of LQC-Y3 on tumor bearing S180 mice; details: for spleen index compared with the negative control group: LQC-Y3 middle and large dosage group (150, 300 mg/kg), cyclophosphamide 0.02 g/(Kg.d)
Protocol: The S180 mice that had been inoculated for 7 days were killed by breaking the neck thereof and ascites was taken from the mice respectively in an aseptic environment and the ascites was washed using RPMI1640 culture medium for 2 times and then made into a 2×10^7/ml cell suspension using aseptic physiological saline. Then the obtained S180 cell suspension was inoculated hypodermically at the right axillary of mice, 0.1 ml for each mouse and 50 mice total, to establish the solid tumor model.
as §1
LQC-Y3 was prepared using 0.5% CMC-Na. The dosage of the small dosage group was 75 mg/Kg, the dosage of the middle dosage group was 150 mg/Kg, and the dosage of the large dosage group was 300 mg/kg. Equal volume of 0.5% CMC-Na was injected into the mice of the negative control group and cyclophosphamide injection 0.02 g/(Kg.d) was injected into the mice of the positive control group. These medicines were administrated 0.1 ml per mouse by intraperitoneal injection every the other day continuously for 15 days. During this period, the common behavior, hair, excrement and so on were observed daily. The mice that had been inoculated with S180 by hypodermic inoculation were killed by breaking the neck thereof after 24 h after the last administration and the tumor, liver and spleen were then taken.
as §2, with “finished” for “over”, “mouse (g)” for “mouse(g)”, “mouse (100” for “mouse(100”, “mouse (g).” for “mouse(g).”
as §3, with “tumor inhibiting” for “tumor-inhibiting”
as §4

Row | Compound | spleen index compared with the negative control group [1] | Spleen index (mg/g) ([1]; cyclophosphamide 0.02 g/(Kg.d) i.p.) | spleen index compared with the negative control group [2] | Spleen index (mg/g) ([2]; S180 mice, cyclophosphamide 0.02 g/(Kg.d) i.p., 15 days) | effect on the spleen index of tumor bearing mice ([1]; 75-300 mg/kg i.p.) | Spleen index ([1]; large dosage 300 mg/kg i.p. every other day) | Spleen index ([1]; middle dosage 150 mg/Kg i.p. every other day) | Spleen index (mg/g) ([1]; small dosage 75 mg/Kg i.p. every other day) | effect on the spleen index of tumor bearing mice ([2]; 75-300 mg/kg i.p.) | Spleen index (mg/g) ([2]; S180 mice, large dosage 300 mg/kg i.p. every other day, 15 days) | Spleen index (mg/g) ([2]; S180 mice, middle dosage 150 mg/Kg i.p. every other day, 15 days) | Spleen index ([2]; S180 mice, small dosage 75 mg/Kg i.p. every other day, 15 days)
1 | O=P1(N(CCCl)CCCl)NCCCO1 (centres unmarked) [Cyclophosphamide, reference compound] | smaller than those of the negative control group | 2.91 ± 0.10^(1)(4) mg/g | smaller than those of the negative control group | 3.93 ± 1.11^(1)(4) mg/g | – | – | – | – | – | – | – | –
2 | Cc1nc(C)c(COC(=O)CCC(C)C2CCC3C4CCC5CC(O)CCC5(C)C4CC(O)C23C)nc1C (centres unmarked) [LQC-Y2, (3,5,6-trimethyl pyrazine-2-yl)methyl-4-(3,12-dihydroxy-10,13-dimethylhexadecahydro-1H-cyclopenta[a]phenanthren-17-yl)pentanoate] | bigger than the negative control group | – | – | – | can Increase the Spleen Index | 4.18 ± 57 mg/g | 3.69 ± 0.47 mg/g | 5.13 ± 1.24^(1)(3) mg/g | – | – | – | –
3 | Cc1nc(C)c(COC(=O)C23CCC(C)(C)CC2C2=CCC4C5(C)CCC(O)C(C)(C)C5CCC4(C)C2(C)CC3)nc1C (centres unmarked) [LQC-Y3, (3,5,6-trimethyl pyrazine-2-yl)methyl-10-hydroxy-2,2,6a,6b,9,9,12a-heptamethyl-1,2,3,4,4a,5,6,6a,6b,7,8,8a,9,10,11,12,12a,12b,13,14b-eicosahydropicene-4a-carboxylate] | – | – | bigger than the negative control group | – | – | – | – | – | can Increase the Spleen Index | 4.82 ± 2.23^(2) mg/g | 5.68 ± 1.77^(1)(4) mg/g | 4.36 ± 1.13 mg/g
